Measured values published in PubChem BioAssay AID624256 (NMMLSC, 2012).
The other results are listed elsewhere or left out. Some results for these compounds are left out of this collection, so the calls shown say nothing about other tests.

assay: induction of myeloid progenitor differentiation, primary screen, cell-based, flow cytometry, MLPCN library (AID 624256); details: ER-HoxA9 myeloid progenitors, lysozyme-GFP differentiation, measured here: differentiation confirmed by MAC1 staining, at 10 µM, stronger effect = higher value;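 note: cells exposed to compound for four days before flow analysis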

Structure (SMILES)	GFP+ MAC1+ double positive
O=C(OC1CN2CCC1CC2)C(CO)(c1ccccc1)c1ccccc1 (centres undefined)	1.1%
C=C(C)C#CC(O)(C(=O)OC1CCN(C)CC1)c1ccccc1 (centres undefined)	0.8%
COc1ccc(Br)c(C(=O)NCC2(N3CCCCC3)CCCCC2)c1	0.4%
CC(C)Oc1ccc(C(=O)NCC2(N(C)C)CCCCC2)cc1	0.5%
O=C(OCCN1CCCC1)C(O)(c1ccccc1)c1ccccc1	1.8%
CN(C)c1cccc(C(=O)NCC2(N(C)C)CCCCC2)c1	0.3%
CN(C)C1(CNC(=O)c2ccc(Br)cc2)CCCCC1	0.5%
COc1cc(C(=O)NCC2(N(C)C)CCCCC2)c([N+](=O)[O-])cc1OC	0.8%
COc1cccc(C(=O)NCC2(N3CCCCC3)CCCCC2)c1	0.1%
COc1ccc(Cl)cc1C(=O)NCC1(N(C)C)CCCCC1	0.7%
O=C(NCC1(N2CCCCC2)CCCCC1)c1cccc(Cl)c1	4.8%
Cc1ccccc1C(=O)NCC1(N2CCCCC2)CCCCC1	0.1%
CN(C)c1ccc(C(=O)NCC2(N(C)C)CCCCC2)cc1	0.3%
CN(C)C1CCCC1OC(=O)C(O)(c1ccccc1)c1ccccc1 (centres undefined)	0.1%
C=CCN1CCN(CCOC(=O)C(O)(c2ccccc2)c2ccccc2)CC1	0.4%
O=C(NCC1(N2CCCCC2)CCCCC1)c1cc(F)c(F)cc1Cl	1.9%
COc1ccc(C(=O)NCC2(N(C)C)CCCCC2)cc1	0.2%
CCN1CCCC(OC(=O)C2(O)c3ccccc3C=Cc3ccccc32)C1 (centres undefined)	1%
Cc1cc(C(=O)NCC2(N3CCCCC3)CCCCC2)ccc1[N+](=O)[O-]	0.5%
O=C(NCC1(N2CCCCC2)CCCCC1)c1cc([N+](=O)[O-])ccc1Cl	0.1%
CN1[C@@H]2CC[C@H]1CC(OC(=O)C(O)(c1ccccc1)c1ccccc1)C2 (some centres undefined)	0.4%
CCN(CC)CC(C)C(C)OC(=O)C(O)(c1ccccc1)c1ccccc1 (centres undefined)	1.7%
COc1cc(SC)ccc1C(=O)NCC1(N(C)C)CCCCC1	0.7%
Cc1ccc(C(=O)NCC2(N3CCCCC3)CCCCC2)cc1	2.7%
